Test results reported in PubChem BioAssay AID540256 (National Center for Advancing Translational Sciences (NCATS), 2011).
“And” between values parts separate entries of the source, which are not always exact repeats. Equal values may be shown once. Hit rate of the full screen: of about 300,000 compounds, about 3,700 (1.2%) were called active. Inconclusive means that the source gave no clear call. Such entries were picked first, then a sample of the others. Calls come from the whole dose curve; tested in HEK293 cells. Potencies beside an inconclusive call are fits to weak or partial responses and may not hold up.

Test: qHTS for Inhibitors of binding or entry into cells for Lassa Virus; note: nearly all actives have a fitted effect of over 50% in size
Details: Lassa virus pseudotype entry inhibition, cell reporter; activity change, negative = inhibition: at 37.9 µM (top of the series) unless noted
% is set by controls: 0 for no effect and ±100 for the full control effect; potency is the fitted concentration of half-maximal effect.

Row | SMILES | Potency | activity change, negative = inhibition
1 | COCCn1c(=NC(=O)c2cc(-c3cccs3)nc3ccccc23)sc2cc(S(N)(=O)=O)ccc21 | inconclusive: 29.1 µM [inhibitor, single point] | 
2 | O=C(CSc1nccn1Cc1ccccc1)Nc1nccs1 | inconclusive: 15.8 µM [activator, single point] | 
3 | CCOC(=O)c1cnn(C)c1NC(=O)c1ccc(Cl)cc1Cl | inconclusive: 35.5 µM [inhibitor, single point] | 
4 | CC(C)(C)NC(=O)Nc1ccc(F)c(Cl)c1 |  | inactive: 9.98%
5 | CCOc1ccc(NS(=O)(=O)c2ccc(C(=O)N3CCCCCC3)cc2)cc1 | inconclusive: 7.94 µM [inhibitor, partial curve, poor fit] | 
6 | Cc1nc2ccccc2c(=O)n1/N=C/c1ccccc1O | inconclusive: 35.5 µM [inhibitor, single point] | 
7 | Clc1ccc(-c2nnc3n2CCCCS3)cc1 |  | inactive: 1.56%
8 | COc1ccc2cc(C)c(SCC(=O)Nc3cc(C)on3)nc2c1 | inconclusive: 1.3 µM [inhibitor, full curve, poor fit] | 
9 | Cc1cc(Oc2cc(N)cc([N+](=O)[O-])c2)ccc1Cl | inconclusive: 5.01 µM [inhibitor, partial curve, poor fit] | 
10 | Cc1ccccc1NC(=O)c1ccc(F)c(S(=O)(=O)NC2CCCC2)c1 |  | inactive: -10.4% [at 46.1 µM]
11 | O=C(NC1CCCc2ccccc21)c1cc(F)cc(F)c1 (centres undefined) |  | inactive: 7.05% [at 46.1 µM]
12 | CCOc1ccc(-c2cc(CCCC(=O)NCCc3ccc(OCC)c(OCC)c3)no2)cc1 | inconclusive: 3.55 µM [inhibitor, partial curve, poor fit] | 
13 | O=C1C2C3C=CC(CC3)C2C(=O)N1c1ccccc1F (centres undefined) |  | inactive: -4.25% [at 46.1 µM]
14 | CCCOC(=O)c1ccc(Nc2nc3ccccc3nc2-n2nc(C)cc2C)cc1 |  | inactive: 13.8% [at 46.1 µM]
15 | Cc1ccc(-n2nnnc2-c2cnn(-c3cccc(F)c3)c2C(F)(F)F)cc1 | inconclusive: 23.1 µM [inhibitor, partial curve] | 
16 | Cc1ccc(NC(=O)Nc2ccc3nc(N4CCN(C)CC4)cc(C)c3c2)cc1C | inconclusive: 35.5 µM [inhibitor, single point] | 
17 | COc1cccc(C(=O)Nc2ccccc2-c2nnc(-c3ccc(C(C)(C)C)cc3)o2)c1 |  | inactive: 21.2% [at 46.1 µM]
18 | COC(=O)c1ccc(CSc2nnc(-c3ccncc3)o2)cc1 | inconclusive: 35.5 µM [inhibitor, single point] | 
19 | Cc1cccc(N2CCN(C(=O)C3CCN(S(=O)(=O)c4cccc5nsnc45)CC3)CC2C)c1 (centres undefined) | inconclusive: 15.8 µM [inhibitor, single point] | 
20 | CCOC(=O)C1CN(S(=O)(=O)c2ccc(OC)cc2)c2ccccc2O1 (centres undefined) | inconclusive: 20 µM [inhibitor, single point] | 
21 | CCCCN(CC)CCNC(=O)c1cc2c(=O)n(C)c3ccccc3c2s1 | inconclusive: 10 µM [inhibitor, partial curve, poor fit] | 
22 | c1cncc(-c2nnc(-c3cccnc3)nn2)c1 | inconclusive: 35.5 µM [inhibitor, single point] | 
23 | Cc1ccc2nc(-c3sc4nc(C)cc(C)c4c3N)[nH]c2c1 | active: 12.6 µM | 

Row | SMILES | Potency | activity change, negative = inhibition
24 | COc1ccccc1N1CCNC(C)C1=O (centres undefined) | inconclusive: 1.26 µM [inhibitor, single point] | 
25 | O=C(c1ccccc1Cl)N1CCN(CCc2ccccn2)CC1 |  | inactive: 18.8% [at 46.1 µM]
26 | COc1ccc(OC)c(C2C(C(=O)c3cccs3)=C(O)C(=O)N2c2cc(C)on2)c1 (centres undefined) | inconclusive: 35.5 µM [activator, single point] | 
27 | CC(C)CN(C(=O)COC(=O)c1ccc(Br)cc1)c1c(N)n(Cc2ccccc2)c(=O)[nH]c1=O | inconclusive: 10 µM [inhibitor, partial curve, poor fit] | 
28 | CCOc1ccc2[nH]c(=O)c(CN(Cc3cccs3)Cc3nnnn3C(C)(C)C)cc2c1 | inconclusive: 18.3 µM [inhibitor, partial curve, poor fit] | 
29 | COc1cc(C(=O)NCCN2CCOCC2)cc(OC)c1OC | inconclusive: 6.51 µM [inhibitor, single point] | 
30 | O=C(CSc1ncc2c(n1)-c1ccccc1N(Cc1ccc(F)cc1)S2(=O)=O)NCc1ccccc1 |  | inactive: 1.65% [at 46.1 µM]
31 | CCc1nn(CC(=O)NCCN(CC)CC)c(=O)c2cc3occc3n12 |  | inactive: -8.97% [at 46.1 µM]
32 | COc1ccc(S(=O)(=O)N2CCC(C(=O)Oc3c(OC)cccc3OC)CC2)cc1OC | inconclusive: 11.2 µM [inhibitor, partial curve, poor fit] | 
33 | COc1cc(/C=C/C(=O)OCC(=O)N(CC(C)C)c2c(N)n(Cc3ccccc3)c(=O)[nH]c2=O)ccc1O |  | inactive: -7.13%
34 | CCOC(=O)c1ccc(N2CN(CCc3ccccc3)CNC2=S)cc1 | inconclusive: 1 µM [inhibitor, partial curve, poor fit] | 
35 | Cc1cccc(-n2ncc(C(=O)NCc3ccco3)c2C2CCN(C(=O)OC(C)(C)C)CC2)c1 | inconclusive: 11.2 µM [inhibitor, single point] | 
36 | CSc1nc2ncc(C(=O)O)c(N)n2n1 | inconclusive: 20 µM [inhibitor, partial curve, poor fit] | 
37 | CCOC(=O)c1c(C)[nH]c(C(=O)C(C)Cl)c1C (centres undefined) |  | inactive: -11.3%
38 | CC(C)C(=O)NNC(=O)c1ccccn1 | inconclusive: 35.5 µM [activator, partial curve, poor fit] | 
39 | COc1ccc(CN2CCNC(=O)C2CC(=O)NC2CCOCC2)cc1C (centres undefined) | inconclusive: 25.1 µM [activator, single point] | 
40 | COCCNc1cc(C)c(C#N)c2nc3ccccc3n12 | inconclusive: 0.126 µM [activator, full curve, poor fit] | 
41 | COc1ccc(C(CNS(=O)(=O)c2ccc(NC(C)=O)c(OC)c2)N2CCCCC2)cc1 (centres undefined) | inconclusive: 0.708 µM [inhibitor, single point] | 
42 | CCOc1ccc(-c2cc(N3C(=O)Nc4ccccc4N3O)n[nH]2)cc1 | inconclusive: 35.5 µM [inhibitor, single point] | 
43 | Cc1cccc(NC(=O)CN2CCC(NC(=O)C3CCCCC3)CC2)c1C |  | inactive: 10.7%
44 | CCN(CC)CCCNC(=O)c1ccccc1C |  | inactive: -31.8% [at 14.3 µM]
45 | COc1ccc(NC(=O)c2sc3nc4c(cc3c2N)CCCCCC4)cc1Cl |  | inactive: -28.2% [at 46.1 µM]
46 | COc1cc(NS(=O)(=O)c2ccc(NC(=O)c3ccc(C(C)=O)cc3)cc2)nc(OC)n1 |  | inactive: -1.27% [at 46.1 µM]

Row | SMILES | Potency | activity change, negative = inhibition
47 | COc1ccccc1C(=O)n1nc(-c2ccccc2)nc1NCc1ccco1 |  | inactive: 42% [at 14.3 µM]
48 | CC1(C)CC(N2CCCC2)=CC(=[N+]2CCCC2)C1 | inconclusive: 6.51 µM [inhibitor, partial curve] | 
49 | O=C(c1ccc(-n2c(SCc3cc(F)ccc3F)nc3ccccc3c2=O)cc1)N1CCOCC1 | inconclusive: 0.501 µM [inhibitor, full curve, poor fit] | 
50 | O=C(Cc1sc(-c2ccccc2Cl)nc1-c1ccccc1)Nc1ccc(F)cc1 |  | inactive: -29%
51 | N#Cc1ccc(/C=N/NC(=O)CCc2ccc(S(=O)(=O)N3CCOCC3)cc2)cc1 | inconclusive: 18.4 µM [inhibitor, partial curve] | 
52 | COc1ccc(CCN2C(=O)CC(Nc3ccc(N4CCOCC4)cc3)C2=O)cc1OC (centres undefined) |  | inactive: -7.71%
53 | COc1ccc(C(=O)NCCNc2ccc([N+](=O)[O-])cc2)cc1OC |  | inactive: -2.2%
54 | CC(=O)Nc1ccc(C2=NN(C)C(=NCc3ccccc3)SC2)cc1 | inconclusive: 35.5 µM [inhibitor, single point] | 
55 | O=C(NCCc1ccc(Cl)cc1)c1ccc(CS(=O)Cc2ccc(Cl)cc2)o1 (centres undefined) | inconclusive: 35.5 µM [inhibitor, single point] | 
56 | O=C(CN1CCN(Cc2ccc(F)cc2)CC1)NCCc1ccccc1 | inconclusive: 0.447 µM [inhibitor, single point] | 
57 | CC(C)(C)NC(=O)CCSc1nnc(-c2ccco2)o1 |  | inactive: 20.7% [at 46.1 µM]
58 | COc1cccc(NC(=O)c2oc3ccc(S(=O)(=O)N4CCOCC4)cc3c2C)c1 | inconclusive: 12.6 µM [inhibitor, single point] and inconclusive: 1.26 µM [inhibitor, single point] | 
59 | CN(C)c1ccc(CNC(=O)CCc2ccc(S(=O)(=O)N3CCCCCC3)cc2)cc1 | inconclusive: 35.5 µM [inhibitor, single point] | 
60 | Cc1c(C(=O)N2CCC2)oc2ccc(Cl)cc12 |  | inactive: 10.4%
61 | Clc1ccc(COc2cccc(CNCc3ccncc3)c2)cc1 | inconclusive: 35.5 µM [inhibitor, single point] | 
62 | O=C(NNS(=O)(=O)c1ccc(F)cc1)c1cccc(O)c1 | inconclusive: 35.5 µM [inhibitor, single point] | 
63 | COc1ccc(S(=O)(=O)NCc2ccccn2)cc1NC(=O)c1ccccc1 | inconclusive: 2 µM [inhibitor, partial curve, poor fit] | 
64 | Cc1n[nH]c(C)c1CCCCOc1ccccc1 |  | inactive: 9.92%
65 | CC1CCCCN1S(=O)(=O)c1ccc2[nH]c(=O)cc(C(=O)NCCc3ccc(Cl)cc3)c2c1 (centres undefined) |  | inactive: 12.7% [at 46.1 µM]
66 | O=[N+]([O-])c1ccc(C2=NN(CCO)C(=Nc3ccc(OC(F)(F)F)cc3)SC2)cc1 | inconclusive: 35.5 µM [inhibitor, single point] | 
67 | COc1ccccc1NS(=O)(=O)c1cc(NC(=O)Nc2ccccc2)ccc1N1CCCCC1 | inconclusive: 8.2 µM [inhibitor, partial curve] | 
68 | CCn1ccnc1CN(C)Cc1cn(-c2cc(C)ccc2C)nc1-c1ccccc1 | inconclusive: 22.4 µM [inhibitor, partial curve, poor fit] | 
69 | COc1ccc(C)cc1S(=O)(=O)N1CCCC(C(=O)N2CCN(c3ccccc3F)CC2)C1 (centres undefined) | inconclusive: 31.6 µM [inhibitor, single point] | 

Looked up above:
Under Potency, Clc1ccc(COc2cccc(CNCc3ccncc3)c2)cc1 has inconclusive: 35.5 µM [inhibitor, single point]
Under Potency, Cc1nc2ccccc2c(=O)n1/N=C/c1ccccc1O has inconclusive: 35.5 µM [inhibitor, single point]
Under Potency, CCOC(=O)c1ccc(N2CN(CCc3ccccc3)CNC2=S)cc1 has inconclusive: 1 µM [inhibitor, partial curve, poor fit]
Under Potency, COc1cc(C(=O)NCCN2CCOCC2)cc(OC)c1OC has inconclusive: 6.51 µM [inhibitor, single point]
Under Potency, Cc1ccc2nc(-c3sc4nc(C)cc(C)c4c3N)[nH]c2c1 has active: 12.6 µM
